According to the supplement of paper PMC5770031:
The other results are listed elsewhere or left out. Single values are uncertain here, since repeats match poorly.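 ATM8/balancer (normal ATM) heterozygous flies were crossed on treated food; parents laid eggs 5–6 days, offspring developed ~12 days, so parents and larvae ingested compound. Readout: fraction of emerged adults homozygous for ATM8 versus 2% DMSO controls. Compounds were neutral at 10–20% homozygotes, harmful below 10%, helpful above 20%.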

Test system: Drosophila melanogaster ATM8 (temperature-sensitive ATM allele)
Test: fraction of eclosed F1 progeny that are homozygous ATM8 (rescue of developmental lethality); higher = more rescue of ATM8 developmental lethality; extreme values may be limits of the assay
Settings: compound concentration applied to food 0.2 mM; 21 °C

| Structure (SMILES) | fraction of eclosed F1 progeny that are homozygous ATM8 |
| --- | --- |
| COc1ccc(-c2cc(=O)c3c(O)c(OC)c(OC)c(OC)c3o2)cc1OC | 0.208 |
| N=C(N)N1CCc2ccccc2C1 | 0.224 |
| CC1=CC(=O)c2ccccc2C1=O | 0.136 |
| CC(=O)/N=c1/sc(S(N)(=O)=O)nn1C | 0.0493 |
| O=C(O)c1nn(Cc2ccc(Cl)cc2Cl)c2ccccc12 | 0.286 |
| CC(=O)Oc1ccc(-c2coc3c4c(c(CC=C(C)C)c(OC(C)=O)c3c2=O)OC(C)(C)C=C4)cc1OC(C)=O | 0.244 |
| C[N+]12CC[C@@]34c5ccccc5N5C(=O)C[C@@H]6OCC=C(C1)[C@H](C[C@@H]32)[C@@H]6[C@H]54 (some centres undefined) | 0.109 |
| CC(C[N+](C)(C)C)OC(N)=O (centres undefined) | 0.0952 |
| CN(C)CCN(Cc1ccc(Cl)cc1)c1ccccn1 | 0.241 |
| Cc1cn([C@H]2C[C@H](N=[N+]=[N-])[C@@H](CO)O2)c(=O)[nH]c1=O | 0.154 |
| COc1ccc([C@@H]2Sc3ccccc3N(CCN(C)C)C(=O)[C@@H]2OC(C)=O)cc1 | 0.185 |
| O=C(NC(=O)c1c(F)cccc1F)Nc1ccc(Cl)cc1 | 0.225 |
| Cc1c(NC(C)C)c(=O)n(-c2ccccc2)n1C | 0.0625 |
| COc1cc2c(c3ccccc13)OC(C)(C)C=C2 | 0.225 |
| COc1cc2c(cc1O)CCN[C@@H]2C | 0.393 |
| COc1ccc(-c2coc3cc(O)ccc3c2=O)c(O)c1O | 0.0435 |
| CCCCCC(=O)Cc1cc(O)cc(O)c1C(=O)Oc1cc(CC(=O)CCCCC)c(C(=O)O)c(OC)c1 | 0.0625 |
| COc1c(C)c2c(c(O)c1C/C=C(\C)CCC(=O)OCCN1CCOCC1)C(=O)OC2 | 0.118 |
| CN1C(C(=O)Nc2ccccn2)=C(O)c2ccccc2S1(=O)=O | 0.157 |
| COc1cc2c(cc1OC)[C@@H]1C(=O)c3ccc4c(c3O[C@@H]1CO2)CC(C(C)C)O4 (some centres undefined) | 0.145 |
| NCCS | 0.278 |
| COCCOC(=O)C1=C(C)NC(C)=C(C(=O)OC(C)C)C1c1cccc([N+](=O)[O-])c1 (centres undefined) | 0.0345 |
| CC1(C)[C@@H](O)CC[C@]2(C)[C@H]3C(=O)C=C4[C@@H]5C[C@@](C)(C(=O)O)CC[C@]5(C)CC[C@@]4(C)[C@]3(C)CC[C@@H]12 | 0.109 |
| C[C@]12CCC(=O)C=C1C=C[C@@H]1[C@@H]2CC[C@@]2(C)[C@H]1CC[C@@]21CCC(=O)O1 | 0.268 |
| CCC1(C2=NCCN2)Cc2ccccc2O1 (centres undefined) | 0.157 |
| CC[C@@H](CO)NC(=O)[C@@H]1C=C2c3cccc4[nH]cc(c34)C[C@H]2N(C)C1 | 0.125 |
| COC(=O)c1c(C)c2c(c(C)c1O)OC(=O)c1c(C)c(Cl)c(O)c(Cl)c1O2 | 0.0588 |
| Cc1ccc(C)c(OCCCC(C)(C)C(=O)O)c1 | 0.116 |
| O=C(O)C[C@H](O)C[C@H](O)/C=C/c1c(C2CC2)nc2ccccc2c1-c1ccc(F)cc1 | 0.158 |

Already shown: an excerpt of the list.

| Structure (SMILES) | fraction of eclosed F1 progeny that are homozygous ATM8 |
| --- | --- |
| COc1cc2c(cc1OC)[C@@H]1C(=O)c3ccc4c(c3O[C@@H]1CO2)CC(C(C)C)O4 (some centres undefined) | 0.145 |
| NCCS | 0.278 |
